Results are given in words; binding and its absence hold for the method and conditions named. Binding seen in cells or lysates may run through a third protein. A yes stands for co-enrichment or nearness to the bait. Other partners may have been found. Where a sequence is shown, tags or fusion partners need not be part of it.

Our source for the binding values is PMC4169405.

T1: N-terminally strep-tagged HdrD1, heterodisulfide reductase, subunit D (Methanosarcina acetivorans C2A) (UniProt Q8TSV7)
T1 sequence: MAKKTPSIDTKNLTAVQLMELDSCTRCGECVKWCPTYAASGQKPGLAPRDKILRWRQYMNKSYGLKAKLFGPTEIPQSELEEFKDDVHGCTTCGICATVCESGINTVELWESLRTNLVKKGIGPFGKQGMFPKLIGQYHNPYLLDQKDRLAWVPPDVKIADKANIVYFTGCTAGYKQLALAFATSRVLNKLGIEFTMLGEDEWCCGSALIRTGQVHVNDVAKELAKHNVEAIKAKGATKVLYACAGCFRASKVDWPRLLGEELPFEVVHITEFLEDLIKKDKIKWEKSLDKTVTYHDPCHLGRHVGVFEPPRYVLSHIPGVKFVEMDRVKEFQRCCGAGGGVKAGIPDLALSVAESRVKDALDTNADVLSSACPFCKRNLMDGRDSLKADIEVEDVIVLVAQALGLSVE

B1: Mer, methylenetetrahydromethanopterin reductase (enzyme, UniProt Q8TJP7 1-328)
chain: MKFGIEFVPSDPALKIAYYAKLSEQQGFDYVWITDHYNNRDVYSTLTVLALNTNSIKIGSGVTNSYTRNPAITASSIASIAEISGGRAVLGLGPGDKATFDAMGIAWEKPLATTKEAIQAIRDFIAGKKVSMDGEMVKFAGAKLAFKAGNVPIYMGAQGPKMLELAGEVADGVLINASHPKDFEVAVEQIRKGAEKVGRDPSEVDVTAYACFSIDKDPAKAINAAKVVVAFIVAGSPDLVLERHGIPVDAKKQIGDAIAKGDFGALMGGLVTPQMIEAFAICGTPEDCMKRIKDLEAIGVTQIVAGSPIGPEKEKAIKLIGKEIIAKM
B2: CdhC, acetyl-CoA decarbonylase/synthase complex subunit beta (MA1014) (protein, UniProt Q8TRZ6 1-469)
chain: MVEFPFEISPMFEGERVRKEGMFVELGGPKSLGLELVRAKPMDEIEDDKVTIVGPDLKEMEEGKTYPWAMIFNIGGELVEPDLESVVERRVHDFINYCQGIMHLNQRYDVWMRVSKDTAAKMDSFEPFGQAVMMLFKTELPFIEKMQVTFYTEQAEVEKQMETAKEIFKARDERTKDLHDEDVDVFYGCTLCQSFAPTNVCVVSPDRVSLCGAINWFDGRAAAKVDPEGPQFEIAKGDLLDANTGEYTGVNDIAKKLSAGEFDKIKLHSFFDSPHTSCGCFEVVGFYIPEVDGIGWVNREYQGMAPNGIGFSTMAGQTGGGKQIVGFLGIGINYFYSPKFIQADGGWNRVVWLPSMLKDKIIDTIPEDLKDKIATENDSTDIESLKAFLQEKGHPVVATWAAEEEEEEEEEEEEEVAVAAAPMMMPAAGFQMPAMPMMSGGSSGGIKLTFKNAKITIDKMIISEKKEKK
B3: CdhC, acetyl-CoA decarbonylase/synthase complex subunit beta (MA3862) (protein, UniProt Q8TJC4 1-470)
chain: MAEFPFEISPMFEGERVRKEGMFVELGGPKSLGLELVRAKPMDEIEDDKVTIVGPDLKEMEEGKTYPWAMIFNIGGELVEPDLESVVERRVHDFINYCQGIMHLNQRYDVWMRVSKDTAAKMDSFEPFGQAVMMLFKTELPFIEKMQVTFYTEQAEVEKQLEEAKAIFKARDERTKDLHDEDVDVFYGCTLCQSFAPTNVCVVSPDRVSLCGAINWFDGRAAAKVDPEGPQFEITKGDLIDAEKGEYTGVNDIAKKLSAGEFDKIKLHSFFDAPHTSCGCFEVVGFYIPEVDGIGWVNREYQGMAPNGIGFSTMAGQTGGGKQIVGFLGIGINYFYSPKFIQADGGWNRVVWLPSMLKDKIAETIPEDLKDKIATENDATDIESLKAFLQEKGHPVVATWAAAEEEEEEEEEEEEEVAVAAAPMMMPAAGFQMPAMPMMSGGSSGGIKLTFKNAKITIDKMIISEKKEKK
B4: molecular chaperone DnaK (protein, UniProt Q8TQR2 1-617)
chain: MAKILGIDLGTTNSCMAVMEGGDAVVLPNAEGSRTTPSVVGFSKKGEKLVGQVAKRQAISNPENTVYSIKRHMGEANYKVTLNGKTYTPQEISAMILQKLKTEAEAYLGETIKQAVITVPAYFNDAQRQATKDAGSIAGLEVLRIINEPTAASLAYGLDKGDVDQKILVYDLGGGTFDVSILELGGGVFEVKSTSGDTHLGGDDFDQRVIDHLLAEFKKTEGIDLSKDKAILQRLKDAAEKAKIELSGVTVTNINLPFLTVGPDGEPKHMDIDLTRAQFQKMTEDLLEKTLVSMRRALSDSKLTPNDLDKVILVGGATRMPAVVELVENFTGKKPYKNINPDEAVAIGAAIQAGVLGGEVKDVLLLDVTPLTLGIETLGGIATPLIQRNTTIPTKKSQIFSTAADNQPSVEIHVLQGERGIASENKTLGRFTLDGIPPAPRGIPQIEVAFDIDANGILHVNAKDLGTGKEQSISIQKPGGLSDAEIERMVKDAELHAEEDKKRKEEVETRNNAEALINAAEKTIKEAGDVATEDQKSKVNAAIEDLKKALEGKDTEEVKAKTEALQEAVYPISTAMYQKAQQEAQQASGEAGSADARGPDETVVDADYEVVDDEKRK

The test concerns the target T1, N-terminally strep-tagged HdrD1, heterodisulfide reductase, subunit D (Methanosarcina acetivorans C2A). The experiment in a line: affinity purification with mass spectrometry; in vivo DMS crosslinking of methanol-grown M. acetivorans cells, whole lysate batch-bound to streptavidin agarose resin, biotin elution, trypsin digest, LC-MS/MS with MASCOT; proteins found in mock purifications from control cells subtracted; biological duplicates; room temperature, anaerobic.
Regarding B1, the binding result is on record as “binds”.

Turning to B2, the binding entry is recorded as “binds”.

On to B3, for which the binding entry is recorded as “binds”.

Consider B4, for which the binding entry is on record as “binds”.
